According to PMC11909883:
Results are given in words; binding and its absence hold for the method and conditions named. In cells and extracts the contact can be indirect. Some entries that bind do so weakly or less than the wild type. Sequences can lack the tags named with a protein.

The chains behind the UniProt entries cited, without tags or fusion partners.
UniProt P63330: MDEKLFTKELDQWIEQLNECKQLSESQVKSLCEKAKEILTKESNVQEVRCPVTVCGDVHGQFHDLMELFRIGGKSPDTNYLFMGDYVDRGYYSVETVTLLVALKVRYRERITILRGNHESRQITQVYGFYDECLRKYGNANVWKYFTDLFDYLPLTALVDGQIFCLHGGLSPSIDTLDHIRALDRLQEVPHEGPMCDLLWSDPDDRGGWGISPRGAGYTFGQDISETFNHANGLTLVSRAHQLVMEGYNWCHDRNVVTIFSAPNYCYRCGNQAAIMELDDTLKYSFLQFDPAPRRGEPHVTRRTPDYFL
UniProt P62715: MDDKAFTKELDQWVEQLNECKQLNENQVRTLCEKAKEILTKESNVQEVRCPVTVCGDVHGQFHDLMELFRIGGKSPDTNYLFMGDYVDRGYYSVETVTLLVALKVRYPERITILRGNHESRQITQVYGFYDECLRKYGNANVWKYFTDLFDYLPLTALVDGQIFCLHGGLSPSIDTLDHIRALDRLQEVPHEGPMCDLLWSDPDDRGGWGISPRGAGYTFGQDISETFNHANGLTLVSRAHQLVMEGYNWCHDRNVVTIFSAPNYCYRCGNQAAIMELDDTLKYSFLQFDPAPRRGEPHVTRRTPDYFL

Molecular target: T1, NLR family pyrin domain containing 4 (mouse NLRP4, Nlrp4e), 3xFLAG-tagged (mouse) (UniProt Q66X19)
T1 sequence: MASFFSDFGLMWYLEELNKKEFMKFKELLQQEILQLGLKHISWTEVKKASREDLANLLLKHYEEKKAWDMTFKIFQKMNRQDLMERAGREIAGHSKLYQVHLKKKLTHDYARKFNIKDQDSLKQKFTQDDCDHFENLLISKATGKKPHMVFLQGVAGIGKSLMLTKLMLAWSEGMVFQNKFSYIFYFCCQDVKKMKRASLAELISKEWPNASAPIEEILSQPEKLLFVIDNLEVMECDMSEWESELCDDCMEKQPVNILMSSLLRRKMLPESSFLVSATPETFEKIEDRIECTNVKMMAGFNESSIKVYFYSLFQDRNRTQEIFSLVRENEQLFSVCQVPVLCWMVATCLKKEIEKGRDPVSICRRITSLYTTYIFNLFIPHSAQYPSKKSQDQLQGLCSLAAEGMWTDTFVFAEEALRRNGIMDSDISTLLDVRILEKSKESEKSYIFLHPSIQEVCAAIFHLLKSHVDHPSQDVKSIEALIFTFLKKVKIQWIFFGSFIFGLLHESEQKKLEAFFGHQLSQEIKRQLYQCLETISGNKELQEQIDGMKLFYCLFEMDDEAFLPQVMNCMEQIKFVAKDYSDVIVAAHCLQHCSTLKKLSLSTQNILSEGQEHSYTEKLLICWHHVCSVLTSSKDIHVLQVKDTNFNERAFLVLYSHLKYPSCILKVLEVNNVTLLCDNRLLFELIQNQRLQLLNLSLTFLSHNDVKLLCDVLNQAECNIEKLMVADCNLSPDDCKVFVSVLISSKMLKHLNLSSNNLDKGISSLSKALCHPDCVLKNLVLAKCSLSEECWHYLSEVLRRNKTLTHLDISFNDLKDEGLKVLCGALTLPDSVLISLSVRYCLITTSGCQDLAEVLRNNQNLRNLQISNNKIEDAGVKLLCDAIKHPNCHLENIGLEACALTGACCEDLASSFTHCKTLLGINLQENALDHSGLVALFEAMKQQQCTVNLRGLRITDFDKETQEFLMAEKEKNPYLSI
Assay: co-IP; flag antibody (or PP2A and p-PP2A, per the legend) incubated with lysate of LLC NLRP4-NC and NLRP4-OE cells overnight at 4 °C, Protein A/G magnetic beads, RIPA buffer, immunoblot

Substance | binding
PPP2CA, catalytic subunit of PP2A (from UniProt P63330 1-309) (enzyme) | binds
PPP2CB, beta isoform of the catalytic subunit of PP2A (from UniProt P62715 1-309) (enzyme) | binds
